Measured values reported in the supplement of paper PMC10735217.
Counter-ions that a name gives are not always drawn. The list shows a part of the results. This data set is noisy: repeats of one test often differ as much as different tests do.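 The human kidney-derived cells carry a stably integrated construct of eight TEAD-binding elements driving luciferase, read by luminescence in a drug-repurposing library screen. A compound counts as a hit when its signal is more than five robust Z scores above the plate mean.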

Test system: HEK293A TEAD-LUC reporter
Experiment: TEAD-luciferase reporter activity (YAP activation), robust Z score vs plate; higher = stronger YAP/TEAD activation
Conditions: 24 h

CCN(CC)CCN1C(=O)C(=Cc2ccc(OC)cc2)Nc2ccccc21 [caroverine fumarate]
TEAD-luciferase reporter activity (compound concentration: 200 nM): inactive: -1.85 | TEAD-luciferase reporter activity (compound concentration: 2 uM): inactive: -0.618 | TEAD-luciferase reporter activity (compound concentration: 10 uM): inactive: -1.05

CCCC1CC(NCC)c2cc(S(N)(=O)=O)sc2S1(=O)=O (stereo not given)
TEAD-luciferase reporter activity (compound concentration: 200 nM): inactive: 0.156 | TEAD-luciferase reporter activity (compound concentration: 2 uM): inactive: -0.978 | TEAD-luciferase reporter activity (compound concentration: 10 uM): inactive: -0.308

Cc1ccc2c(Br)cc(Br)c(O)c2n1 [BROXALDINE metabolite]
TEAD-luciferase reporter activity (compound concentration: 200 nM): inactive: 3.14 | TEAD-luciferase reporter activity (compound concentration: 2 uM): inactive: -0.103 | TEAD-luciferase reporter activity (compound concentration: 10 uM): inactive: 2.35

CNC(=O)[C@H](C/C=C/c1ccc(N(C)c2ncccn2)cc1)NC(=O)c1c(F)cccc1F
TEAD-luciferase reporter activity (compound concentration: 200 nM): inactive: 0.363 | TEAD-luciferase reporter activity (compound concentration: 2 uM): inactive: -0.155 | TEAD-luciferase reporter activity (compound concentration: 10 uM): inactive: -0.57

NC(=O)Cn1c(=O)cc(CCN2CCN(c3nccc4sccc34)CC2)c2ccc(F)cc21
TEAD-luciferase reporter activity (compound concentration: 200 nM): inactive: 4.63 | TEAD-luciferase reporter activity (compound concentration: 2 uM): inactive: -1.05 | TEAD-luciferase reporter activity (compound concentration: 10 uM): inactive: 2.17

S=C(NCc1ccc2c(c1)OCO2)N1CCN(c2ncnc3c2oc2ccccc23)CC1 [Amuvatinib]
TEAD-luciferase reporter activity (compound concentration: 2 uM): inactive: -0.696

S=C(NCc1ccc2c(c1)OCO2)N1CCN(c2ncnc3c2oc2ccccc23)CC1 [Amuvatinib (MP-470)]
TEAD-luciferase reporter activity (compound concentration: 200 nM): inactive: 0.202 | TEAD-luciferase reporter activity (compound concentration: 10 uM): inactive: -0.135

C[C@@H](O)[C@H]1C(=O)N2C(C(=O)O)=C(SCCNC=N)C[C@H]12 [imipenem]
TEAD-luciferase reporter activity (compound concentration: 2 uM): inactive: 1.84

C[C@@H](O)[C@H]1C(=O)N2C(C(=O)O)=C(SCCNC=N)C[C@H]12
TEAD-luciferase reporter activity (compound concentration: 200 nM): inactive: -2.21 | TEAD-luciferase reporter activity (compound concentration: 10 uM): inactive: 2.59

Cc1coc2ccccc2c1=O
TEAD-luciferase reporter activity (compound concentration: 200 nM): inactive: -1.53 | TEAD-luciferase reporter activity (compound concentration: 2 uM): inactive: -0.382 | TEAD-luciferase reporter activity (compound concentration: 10 uM): inactive: 4.22

C[C@]1(C(=O)[O-])CSC(c2ncccc2O)=N1
TEAD-luciferase reporter activity (compound concentration: 200 nM): inactive: 1.46 | TEAD-luciferase reporter activity (compound concentration: 2 uM): inactive: 0.321 | TEAD-luciferase reporter activity (compound concentration: 10 uM): inactive: -1.21

COc1ccc(CC(=O)O)cc1Oc1ccc(NC(=O)C(C)(C)C)cc1CSC(C)(C)C
TEAD-luciferase reporter activity (compound concentration: 200 nM): inactive: 0.376 | TEAD-luciferase reporter activity (compound concentration: 2 uM): inactive: 1.47 | TEAD-luciferase reporter activity (compound concentration: 10 uM): inactive: 0.553

O=C(CCCNc1ncc(C(F)(F)F)cc1Cl)NNS(=O)(=O)c1ccc(CNC(=O)c2ccc(Cl)cc2)s1
TEAD-luciferase reporter activity (compound concentration: 200 nM): inactive: 2.18 | TEAD-luciferase reporter activity (compound concentration: 2 uM): inactive: -2.46 | TEAD-luciferase reporter activity (compound concentration: 10 uM): inactive: -1.49

CCCNC(=O)c1nnc2c(-c3c(F)cccc3OC)cccc2c1N
TEAD-luciferase reporter activity (compound concentration: 200 nM): inactive: 0.174 | TEAD-luciferase reporter activity (compound concentration: 2 uM): inactive: 0.874 | TEAD-luciferase reporter activity (compound concentration: 10 uM): inactive: -1.33

C=CCN1Cc2ccccc2-c2ccccc2C1
TEAD-luciferase reporter activity (compound concentration: 200 nM): inactive: -0.243 | TEAD-luciferase reporter activity (compound concentration: 2 uM): inactive: 0.156 | TEAD-luciferase reporter activity (compound concentration: 10 uM): inactive: 3.66

CCCC(=O)OCC(=O)Nc1nc(-c2ccc(OC)cc2)cs1
TEAD-luciferase reporter activity (compound concentration: 200 nM): inactive: -0.361 | TEAD-luciferase reporter activity (compound concentration: 2 uM): inactive: 3.15 | TEAD-luciferase reporter activity (compound concentration: 10 uM): active: 5.08

CCCCCCc1ccc(N=C2SCCS2)cc1
TEAD-luciferase reporter activity (compound concentration: 200 nM): inactive: -1.16 | TEAD-luciferase reporter activity (compound concentration: 2 uM): inactive: 0.0174 | TEAD-luciferase reporter activity (compound concentration: 10 uM): inactive: 3.51

CC1CC(ON)CCN1 (stereo not given)
TEAD-luciferase reporter activity (compound concentration: 200 nM): inactive: -0.775 | TEAD-luciferase reporter activity (compound concentration: 2 uM): inactive: -0.0634 | TEAD-luciferase reporter activity (compound concentration: 10 uM): inactive: 1.5

COc1cc2c(CCN3CCN(c4cccc(Cl)c4C)CC3)nn(Cc3cnc[nH]3)c2cc1OC
TEAD-luciferase reporter activity (compound concentration: 200 nM): inactive: -1.44 | TEAD-luciferase reporter activity (compound concentration: 2 uM): inactive: -1.98 | TEAD-luciferase reporter activity (compound concentration: 10 uM): inactive: 0.0192

O=C(O)CN(CC(=O)O)CC(=O)Nc1ccc(Cl)cc1C(=O)c1ccccc1
TEAD-luciferase reporter activity (compound concentration: 200 nM): inactive: 2.9 | TEAD-luciferase reporter activity (compound concentration: 2 uM): inactive: 2.29 | TEAD-luciferase reporter activity (compound concentration: 10 uM): inactive: -1.67

CCCc1nc(C(C)(C)O)c(C(=O)OCc2oc(=O)oc2C)n1Cc1ccc(-c2ccccc2-c2nnn[nH]2)cc1 [Olmesartan medoxomil]
TEAD-luciferase reporter activity (compound concentration: 200 nM): inactive: -2.34 | TEAD-luciferase reporter activity (compound concentration: 2 uM): inactive: -1.94 | TEAD-luciferase reporter activity (compound concentration: 10 uM): inactive: 2.77

CCC(=O)O[C@@H]1CC(=O)O[C@H](C)C/C=C/C=C/[C@H](O[C@H]2CC[C@H](N(C)C)[C@@H](C)O2)[C@H](C)C[C@H](CC=O)[C@H](O[C@@H]2O[C@H](C)[C@@H](O[C@H]3C[C@@](C)(O)[C@@H](O)[C@H](C)O3)[C@H](N(C)C)[C@H]2O)[C@H]1OC
TEAD-luciferase reporter activity (compound concentration: 200 nM): inactive: -1.59 | TEAD-luciferase reporter activity (compound concentration: 2 uM): inactive: 0.709 | TEAD-luciferase reporter activity (compound concentration: 10 uM): inactive: 0.117

CCCS(=O)c1ccc2[nH]c(NC(=O)OC)nc2c1 (stereo not given)
TEAD-luciferase reporter activity (compound concentration: 200 nM): inactive: -0.333 | TEAD-luciferase reporter activity (compound concentration: 2 uM): inactive: -1.2 | TEAD-luciferase reporter activity (compound concentration: 10 uM): inactive: -1.66

CN(Cc1cc(Br)cc(Br)c1N)C1CCCCC1 [Bromhexine HCl]
TEAD-luciferase reporter activity (compound concentration: 200 nM): inactive: 0.704 | TEAD-luciferase reporter activity (compound concentration: 10 uM): inactive: -2.12

CN(Cc1cc(Br)cc(Br)c1N)C1CCCCC1 [Bromhexine hydrochloride]
TEAD-luciferase reporter activity (compound concentration: 2 uM): inactive: -2.33

CC(C)n1c(=O)n(C(=O)NCC2CCN(CC3(O)CCOCC3)CC2)c2ccccc21
TEAD-luciferase reporter activity (compound concentration: 200 nM): inactive: -0.522 | TEAD-luciferase reporter activity (compound concentration: 2 uM): inactive: -0.305 | TEAD-luciferase reporter activity (compound concentration: 10 uM): inactive: 1.14

OC1(c2ccc(Cl)c(C(F)(F)F)c2)CCN(CCCC(c2ccc(F)cc2)c2ccc(F)cc2)CC1 [penfluridol]
TEAD-luciferase reporter activity (compound concentration: 200 nM): inactive: -0.733 | TEAD-luciferase reporter activity (compound concentration: 2 uM): inactive: 1.94 | TEAD-luciferase reporter activity (compound concentration: 10 uM): inactive: 2.58

NCCC(=O)N1CCCC2(Cc3ccccc3CN2C(=O)C2CCCC2)C1 (stereo not given)
TEAD-luciferase reporter activity (compound concentration: 200 nM): inactive: -0.682 | TEAD-luciferase reporter activity (compound concentration: 10 uM): inactive: -0.191

CCOC(=O)[C@H](CCc1ccccc1)N[C@H]1CS[C@H](c2cccs2)CN(CC(=O)O)C1=O [temocapril]
TEAD-luciferase reporter activity (compound concentration: 200 nM): inactive: -0.0194 | TEAD-luciferase reporter activity (compound concentration: 2 uM): inactive: -0.212 | TEAD-luciferase reporter activity (compound concentration: 10 uM): inactive: 3.65

COC(=O)C1=C(C)NC(C)=C(C(=O)OCC(C)(C)CN(C)Cc2ccccc2)C1c1cc([N+](=O)[O-])ccc1F (stereo not given)
TEAD-luciferase reporter activity (compound concentration: 200 nM): active: 5.42 | TEAD-luciferase reporter activity (compound concentration: 2 uM): inactive: 0.366 | TEAD-luciferase reporter activity (compound concentration: 10 uM): inactive: -0.6

CC(C)Oc1cccc(CC(=O)N2CCC[C@](CC[N+]34CCC(c5ccccc5)(CC3)CC4)(c3ccc(Cl)c(Cl)c3)C2)c1
TEAD-luciferase reporter activity (compound concentration: 200 nM): inactive: -1.6 | TEAD-luciferase reporter activity (compound concentration: 2 uM): inactive: -1.31 | TEAD-luciferase reporter activity (compound concentration: 10 uM): inactive: 2.67

Cc1cccc(C)c1NC(=O)c1ccc(N)cc1 [Ameltolide]
TEAD-luciferase reporter activity (compound concentration: 200 nM): inactive: -1.12 | TEAD-luciferase reporter activity (compound concentration: 2 uM): inactive: -1.91 | TEAD-luciferase reporter activity (compound concentration: 10 uM): inactive: 1.62

CN(c1ccc(/C=C/C[C@H](NC(=O)c2ccccc2)C(=O)O)cc1)c1ncccn1
TEAD-luciferase reporter activity (compound concentration: 200 nM): inactive: -0.703 | TEAD-luciferase reporter activity (compound concentration: 2 uM): inactive: 0.226 | TEAD-luciferase reporter activity (compound concentration: 10 uM): inactive: 0.946

CCCCCCCCCCCCCCCCCCOC1=C(O)[C@@H]([C@@H](O)CO)OC1=O
TEAD-luciferase reporter activity (compound concentration: 200 nM): inactive: -0.274 | TEAD-luciferase reporter activity (compound concentration: 2 uM): inactive: 0.0171 | TEAD-luciferase reporter activity (compound concentration: 10 uM): inactive: -0.173

CN1CCCN=C1COC(=O)C(O)(c1ccccc1)C1CCCCC1 (stereo not given)
TEAD-luciferase reporter activity (compound concentration: 200 nM): inactive: -1.8 | TEAD-luciferase reporter activity (compound concentration: 10 uM): inactive: 0.538

CN1CCCN=C1COC(=O)C(O)(c1ccccc1)C1CCCCC1 (stereo not given) [Oxyphencyclimine hydrochloride]
TEAD-luciferase reporter activity (compound concentration: 2 uM): inactive: 0.591
